{"source": "PubChem BioAssay AID1259254 (NCATS, 2017)", "test": "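Genome-wide screen for genes that prevent DNA re-replication in cancer cells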 (primary screen)", "cells": "human HCT116 colorectal cancer cells", "reagents": "single siRNA against human genes", "time to read-out": "3 days", "measured": "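Nuclei stained with Hoechst and imaged; cell-cycle phase assigned by DNA content; G2 share scaled per plate, non-targeting siRNA 0%, GMNN siRNA 100%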", "direction": "G2 robust z-score: higher = more G2 cells, more excess DNA replication", "hit rule": "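An siRNA counts as active if its G2 robust z-score lies at least 5 MADs above the screen median; here such calls match roughly 38% of GMNN control or more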", "note": "The deposit covers about 59,000 reagents; shown is a random part of them. About 1,550 of all reagents (2.6%) count as active. 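G2 share is only a proxy for re-replication; each gene was hit by three separate siRNAs, and active genes were retested.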 Unmarked entries are inactive. The numbers tell different reagents against one gene apart. Further read-outs or replicates are left out here. Not given: the amount of reagent."}
{"gene knocked down": "ASB4 (GeneID 51666)", "reagent no.": 1, "G2 robust z-score": -0.0167}
{"gene knocked down": "ASB4 (GeneID 51666)", "reagent no.": 2, "G2 robust z-score": -0.61}
{"gene knocked down": "ASB4 (GeneID 51666)", "reagent no.": 3, "G2 robust z-score": 1.58}
{"gene knocked down": "HIVEP1 (GeneID 3096)", "reagent no.": 1, "G2 robust z-score": 0.311}
{"gene knocked down": "HIVEP1 (GeneID 3096)", "reagent no.": 2, "G2 robust z-score": -1}
{"gene knocked down": "HIVEP1 (GeneID 3096)", "reagent no.": 3, "G2 robust z-score": 0.242}

Continued, starting with the last 2 of the part before.
{"gene knocked down": "HIVEP1 (GeneID 3096)", "reagent no.": 2, "G2 robust z-score": -1}
{"gene knocked down": "HIVEP1 (GeneID 3096)", "reagent no.": 3, "G2 robust z-score": 0.242}
{"gene knocked down": "GNL3L (GeneID 54552)", "reagent no.": 1, "G2 robust z-score": 0.0986}
{"gene knocked down": "GNL3L (GeneID 54552)", "reagent no.": 2, "G2 robust z-score": 1.28}
{"gene knocked down": "GNL3L (GeneID 54552)", "reagent no.": 3, "G2 robust z-score": 1.13}
{"gene knocked down": "HMMR (GeneID 3161)", "reagent no.": 1, "G2 robust z-score": 1.2}
{"gene knocked down": "HMMR (GeneID 3161)", "reagent no.": 2, "G2 robust z-score": 0.374}
{"gene knocked down": "HMMR (GeneID 3161)", "reagent no.": 3, "G2 robust z-score": 3.4}
